Results are given in words; binding and its absence hold for the method and conditions named. For part of these data: In cells and extracts the contact can be indirect. Some binding calls cover weakened binding; strength is not graded here. For part of these data: Where a sequence is shown, tags or fusion partners need not be part of it.
Assays:
[1] = biological target: Mto2 (two differently tagged copies: Mto2-13myc and 6His-FLAG-GFP-Mto2) (Schizosaccharomyces pombe) (UniProt Q9USP7); assay: co-IP; 6His-FLAG-GFP-Mto2 precipitated from mto1+ and mto1Δ cell extracts; western blots probed with antibodies against GFP, Myc and Mto1
[2] = biological target: T1, Mto1 (in the Mto1/2 complex isolated from cells) (Schizosaccharomyces pombe) (UniProt O94488); assay: co-IP; Mto1/2 complex isolated from cells by immunoprecipitation (Figure S3A)
T1 sequence: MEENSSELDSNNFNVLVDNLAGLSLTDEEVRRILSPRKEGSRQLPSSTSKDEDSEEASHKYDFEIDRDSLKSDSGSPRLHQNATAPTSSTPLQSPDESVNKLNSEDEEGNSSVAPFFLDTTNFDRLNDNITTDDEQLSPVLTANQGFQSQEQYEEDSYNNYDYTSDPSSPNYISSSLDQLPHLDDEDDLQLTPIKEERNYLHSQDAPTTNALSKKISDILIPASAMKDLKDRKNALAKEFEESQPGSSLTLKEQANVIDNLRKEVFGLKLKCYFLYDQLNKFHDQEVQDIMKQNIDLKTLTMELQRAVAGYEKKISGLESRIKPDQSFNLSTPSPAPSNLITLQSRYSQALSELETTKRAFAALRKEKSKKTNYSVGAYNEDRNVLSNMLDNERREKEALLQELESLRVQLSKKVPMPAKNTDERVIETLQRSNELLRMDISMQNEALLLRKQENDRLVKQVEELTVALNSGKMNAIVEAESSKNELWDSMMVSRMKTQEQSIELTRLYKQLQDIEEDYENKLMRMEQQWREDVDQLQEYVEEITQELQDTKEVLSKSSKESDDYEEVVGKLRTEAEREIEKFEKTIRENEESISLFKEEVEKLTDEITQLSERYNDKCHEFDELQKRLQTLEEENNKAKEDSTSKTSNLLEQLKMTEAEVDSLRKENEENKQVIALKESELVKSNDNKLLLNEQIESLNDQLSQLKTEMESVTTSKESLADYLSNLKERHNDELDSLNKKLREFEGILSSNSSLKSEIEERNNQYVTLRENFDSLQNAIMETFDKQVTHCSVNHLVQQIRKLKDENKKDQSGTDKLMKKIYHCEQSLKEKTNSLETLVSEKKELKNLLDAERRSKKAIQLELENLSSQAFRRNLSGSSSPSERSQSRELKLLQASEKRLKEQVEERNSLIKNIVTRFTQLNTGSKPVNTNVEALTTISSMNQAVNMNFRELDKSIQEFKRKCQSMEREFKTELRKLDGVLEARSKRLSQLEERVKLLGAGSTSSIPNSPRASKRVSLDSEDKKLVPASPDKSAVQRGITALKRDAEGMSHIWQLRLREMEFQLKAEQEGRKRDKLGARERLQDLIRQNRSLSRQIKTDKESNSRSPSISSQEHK

[3] = biological target: Mto2-SZZ (Schizosaccharomyces pombe) (UniProt Q9USP7); assay: glycerol density-gradient centrifugation; cell lysates of mto1[9A1-bonsai]-GFP and mto1Δ cells; isokinetic glycerol gradient, 2.5 hr or 45 min; quantitative western blotting

B1: Mto2 (two differently tagged copies: Mto2-13myc and 6His-FLAG-GFP-Mto2) (protein, UniProt Q9USP7 1-397)
chain: MSEHNYQSDREVAEDPFLNYEASANQLSSNSRESTPRGSPWRAGMRSASLMTEPLEDSMYSDNNYLDNGVSFTKDENPLYSPSWPSLADANVNSMKSNNAIQEHKAAKFVSEKSLEKVSTADNNLVLQELENLRERLNQVELQLSERPSSYLGYHNNLSPYRSPNSYPSLLPSTHSPHSPAPLSTMQTALMRLRTYHPSPIILKPVEQAVNHAITLVNTSPSSVVDALCRSLAELCLGLVQEAIDASILSQQESSNSLDLVRHTPPLNYTSSVDSSPQRMASDSYGRPSLHLNDPFPSVDLQSNELSHHNVRTTLFSDDSRFHSKIHTHSTPPSQMYSAASHFRYRSDPSTRHVSNSTNKSSLHPSPTSLRVAHPIIPQRASPASQSFPSLQDTPSP
With B1 the binding [1] was “binds”.

B2: Mto2 (protein, UniProt Q9USP7 1-397)
chain: MSEHNYQSDREVAEDPFLNYEASANQLSSNSRESTPRGSPWRAGMRSASLMTEPLEDSMYSDNNYLDNGVSFTKDENPLYSPSWPSLADANVNSMKSNNAIQEHKAAKFVSEKSLEKVSTADNNLVLQELENLRERLNQVELQLSERPSSYLGYHNNLSPYRSPNSYPSLLPSTHSPHSPAPLSTMQTALMRLRTYHPSPIILKPVEQAVNHAITLVNTSPSSVVDALCRSLAELCLGLVQEAIDASILSQQESSNSLDLVRHTPPLNYTSSVDSSPQRMASDSYGRPSLHLNDPFPSVDLQSNELSHHNVRTTLFSDDSRFHSKIHTHSTPPSQMYSAASHFRYRSDPSTRHVSNSTNKSSLHPSPTSLRVAHPIIPQRASPASQSFPSLQDTPSP
In the case of B2, the binding [2] is reported as “binds”.

B3: Mto2-SZZ (protein, UniProt Q9USP7 1-397)
chain: MSEHNYQSDREVAEDPFLNYEASANQLSSNSRESTPRGSPWRAGMRSASLMTEPLEDSMYSDNNYLDNGVSFTKDENPLYSPSWPSLADANVNSMKSNNAIQEHKAAKFVSEKSLEKVSTADNNLVLQELENLRERLNQVELQLSERPSSYLGYHNNLSPYRSPNSYPSLLPSTHSPHSPAPLSTMQTALMRLRTYHPSPIILKPVEQAVNHAITLVNTSPSSVVDALCRSLAELCLGLVQEAIDASILSQQESSNSLDLVRHTPPLNYTSSVDSSPQRMASDSYGRPSLHLNDPFPSVDLQSNELSHHNVRTTLFSDDSRFHSKIHTHSTPPSQMYSAASHFRYRSDPSTRHVSNSTNKSSLHPSPTSLRVAHPIIPQRASPASQSFPSLQDTPSP
For B3, the binding [3] was “binds”.
